Experimental data reported in article PMC9200344, “The Caenorhabditis elegans TDRD5/7-like protein, LOTR-1, interacts with the helicase ZNFX-1 to balance epigenetic signals in the germline” (PLoS Genetics, 2022).
Results are given in words; binding and its absence hold for the method and conditions named. Binding calls can cover weak binding; strength is not graded here.

Amino acid sequences for entries named in this document (tags omitted). A change or cut given only in a name is not applied to a line headed by its entry.
UniProt A5Z2T6: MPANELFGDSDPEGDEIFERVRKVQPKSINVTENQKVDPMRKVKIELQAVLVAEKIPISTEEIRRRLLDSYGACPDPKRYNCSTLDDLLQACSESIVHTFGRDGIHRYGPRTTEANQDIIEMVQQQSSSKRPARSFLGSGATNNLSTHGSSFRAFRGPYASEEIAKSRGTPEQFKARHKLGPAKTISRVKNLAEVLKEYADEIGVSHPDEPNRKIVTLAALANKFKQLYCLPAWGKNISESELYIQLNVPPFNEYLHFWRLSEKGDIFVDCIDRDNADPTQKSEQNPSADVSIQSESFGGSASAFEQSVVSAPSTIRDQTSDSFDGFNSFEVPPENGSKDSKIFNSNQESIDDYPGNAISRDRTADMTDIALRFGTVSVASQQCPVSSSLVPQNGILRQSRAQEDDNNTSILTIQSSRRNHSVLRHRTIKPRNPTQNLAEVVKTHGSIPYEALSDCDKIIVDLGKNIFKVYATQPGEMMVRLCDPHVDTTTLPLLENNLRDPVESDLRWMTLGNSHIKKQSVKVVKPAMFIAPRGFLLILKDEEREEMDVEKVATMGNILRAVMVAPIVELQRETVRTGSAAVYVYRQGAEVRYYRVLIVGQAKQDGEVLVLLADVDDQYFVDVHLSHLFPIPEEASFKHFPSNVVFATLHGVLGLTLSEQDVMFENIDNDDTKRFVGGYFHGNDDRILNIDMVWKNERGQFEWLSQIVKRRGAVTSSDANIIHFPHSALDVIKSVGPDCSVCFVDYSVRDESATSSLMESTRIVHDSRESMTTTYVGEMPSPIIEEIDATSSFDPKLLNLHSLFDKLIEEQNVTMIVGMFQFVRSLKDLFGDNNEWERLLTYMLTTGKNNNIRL
UniProt Q18509: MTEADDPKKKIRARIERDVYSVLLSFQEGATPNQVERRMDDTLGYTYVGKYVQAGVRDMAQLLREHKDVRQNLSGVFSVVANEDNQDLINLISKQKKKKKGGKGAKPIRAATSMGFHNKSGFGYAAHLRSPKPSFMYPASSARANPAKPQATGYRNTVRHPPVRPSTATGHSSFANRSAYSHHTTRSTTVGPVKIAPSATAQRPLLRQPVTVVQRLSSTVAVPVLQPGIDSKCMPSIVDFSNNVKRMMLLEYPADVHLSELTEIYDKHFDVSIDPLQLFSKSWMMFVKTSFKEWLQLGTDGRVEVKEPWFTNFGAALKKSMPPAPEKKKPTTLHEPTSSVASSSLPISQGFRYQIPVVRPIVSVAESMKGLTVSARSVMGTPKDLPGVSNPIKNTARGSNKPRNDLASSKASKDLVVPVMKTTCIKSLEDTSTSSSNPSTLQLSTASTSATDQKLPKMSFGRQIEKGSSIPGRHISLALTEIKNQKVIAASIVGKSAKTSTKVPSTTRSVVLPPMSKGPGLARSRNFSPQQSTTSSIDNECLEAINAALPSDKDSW
UniProt P90898: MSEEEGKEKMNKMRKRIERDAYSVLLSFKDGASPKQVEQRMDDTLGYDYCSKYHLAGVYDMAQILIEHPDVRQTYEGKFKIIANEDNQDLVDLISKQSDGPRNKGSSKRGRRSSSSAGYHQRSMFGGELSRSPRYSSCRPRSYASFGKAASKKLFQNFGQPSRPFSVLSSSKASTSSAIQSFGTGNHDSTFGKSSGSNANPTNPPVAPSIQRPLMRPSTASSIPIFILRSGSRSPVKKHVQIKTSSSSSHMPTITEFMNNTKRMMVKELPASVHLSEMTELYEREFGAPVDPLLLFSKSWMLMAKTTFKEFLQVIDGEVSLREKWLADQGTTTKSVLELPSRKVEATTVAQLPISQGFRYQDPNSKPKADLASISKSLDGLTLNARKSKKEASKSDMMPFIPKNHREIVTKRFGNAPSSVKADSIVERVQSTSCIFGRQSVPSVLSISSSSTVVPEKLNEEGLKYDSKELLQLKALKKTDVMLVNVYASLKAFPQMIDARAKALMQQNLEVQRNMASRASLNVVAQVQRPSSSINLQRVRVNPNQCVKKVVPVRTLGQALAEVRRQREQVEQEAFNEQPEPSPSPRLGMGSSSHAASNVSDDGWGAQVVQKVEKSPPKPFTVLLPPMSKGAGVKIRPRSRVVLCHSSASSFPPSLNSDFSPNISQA

Biological target: full length LOTR-1 (yeast two-hybrid) (C. elegans) (UniProt A5Z2T6)
Test: two-hybrid; GAL4-AD and GAL4-BD fusions (pGAD-C1, pGBD-C1) in yeast strain PJ69-4a; SC-Leu-Trp-Ade plates or SC-Leu-Trp-His plates with varying 3-amino-1,2,4-triazole

Row | Substance | binding
1 | MIP-1 (yeast two-hybrid) (from UniProt Q18509) | binds
2 | MIP-2 (yeast two-hybrid) (from UniProt P90898) | binds
